According to PMC2629544:
Results are given in words; binding and its absence hold for the method and conditions named. Some binding calls cover weakened binding; strength is not graded here.

Target: T1, Xdsh N-terminal fragment (residues 1-268), yeast two-hybrid bait (X. laevis) (UniProt P51142)
T1 sequence: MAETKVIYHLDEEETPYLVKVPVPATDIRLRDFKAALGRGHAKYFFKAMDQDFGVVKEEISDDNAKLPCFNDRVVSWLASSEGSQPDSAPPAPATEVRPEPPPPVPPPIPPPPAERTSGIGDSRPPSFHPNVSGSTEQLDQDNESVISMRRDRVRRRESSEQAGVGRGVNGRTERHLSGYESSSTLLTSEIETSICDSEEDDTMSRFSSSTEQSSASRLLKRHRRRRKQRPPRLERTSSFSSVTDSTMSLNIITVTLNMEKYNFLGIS
Assay: two-hybrid; same screen, clones reported as data not shown; bait Xdsh residues 1-268

binding: binds
B1: Dsh DIX domain clones, yeast two-hybrid prey (domain or fragment, UniProt P51142 1-82)
chain: MAETKVIYHLDEEETPYLVKVPVPATDIRLRDFKAALGRGHAKYFFKAMDQDFGVVKEEISDDNAKLPCFNDRVVSWLASSE
